# The list shows a part of the results.
# By UniProt entry, the sequences of proteins in these tests, tags left out. Where a name states a change or a piece, a line headed by the entry shows the natural chain unless it says otherwise.
# UniProt P50897: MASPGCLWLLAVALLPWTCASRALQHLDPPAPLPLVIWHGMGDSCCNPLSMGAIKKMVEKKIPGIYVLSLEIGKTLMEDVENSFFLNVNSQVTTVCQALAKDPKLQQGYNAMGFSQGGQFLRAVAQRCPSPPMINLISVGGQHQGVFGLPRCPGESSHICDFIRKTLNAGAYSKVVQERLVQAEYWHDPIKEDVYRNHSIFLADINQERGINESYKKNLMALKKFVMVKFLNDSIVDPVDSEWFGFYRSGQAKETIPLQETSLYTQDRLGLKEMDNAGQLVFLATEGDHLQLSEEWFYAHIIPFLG
# UniProt P53041: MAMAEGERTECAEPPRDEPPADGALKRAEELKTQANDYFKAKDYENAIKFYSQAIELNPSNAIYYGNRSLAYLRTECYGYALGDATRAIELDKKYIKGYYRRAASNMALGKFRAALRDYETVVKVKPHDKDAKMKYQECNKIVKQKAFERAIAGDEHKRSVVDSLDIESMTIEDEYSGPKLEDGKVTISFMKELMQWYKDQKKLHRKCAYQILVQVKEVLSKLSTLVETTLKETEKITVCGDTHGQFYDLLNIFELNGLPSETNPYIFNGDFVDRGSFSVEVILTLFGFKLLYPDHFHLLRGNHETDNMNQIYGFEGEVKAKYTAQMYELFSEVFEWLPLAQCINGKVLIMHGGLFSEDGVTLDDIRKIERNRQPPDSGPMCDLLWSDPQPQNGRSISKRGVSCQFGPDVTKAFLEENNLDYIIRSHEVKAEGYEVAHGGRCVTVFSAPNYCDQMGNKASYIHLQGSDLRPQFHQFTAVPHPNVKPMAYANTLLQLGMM
# UniProt Q13029: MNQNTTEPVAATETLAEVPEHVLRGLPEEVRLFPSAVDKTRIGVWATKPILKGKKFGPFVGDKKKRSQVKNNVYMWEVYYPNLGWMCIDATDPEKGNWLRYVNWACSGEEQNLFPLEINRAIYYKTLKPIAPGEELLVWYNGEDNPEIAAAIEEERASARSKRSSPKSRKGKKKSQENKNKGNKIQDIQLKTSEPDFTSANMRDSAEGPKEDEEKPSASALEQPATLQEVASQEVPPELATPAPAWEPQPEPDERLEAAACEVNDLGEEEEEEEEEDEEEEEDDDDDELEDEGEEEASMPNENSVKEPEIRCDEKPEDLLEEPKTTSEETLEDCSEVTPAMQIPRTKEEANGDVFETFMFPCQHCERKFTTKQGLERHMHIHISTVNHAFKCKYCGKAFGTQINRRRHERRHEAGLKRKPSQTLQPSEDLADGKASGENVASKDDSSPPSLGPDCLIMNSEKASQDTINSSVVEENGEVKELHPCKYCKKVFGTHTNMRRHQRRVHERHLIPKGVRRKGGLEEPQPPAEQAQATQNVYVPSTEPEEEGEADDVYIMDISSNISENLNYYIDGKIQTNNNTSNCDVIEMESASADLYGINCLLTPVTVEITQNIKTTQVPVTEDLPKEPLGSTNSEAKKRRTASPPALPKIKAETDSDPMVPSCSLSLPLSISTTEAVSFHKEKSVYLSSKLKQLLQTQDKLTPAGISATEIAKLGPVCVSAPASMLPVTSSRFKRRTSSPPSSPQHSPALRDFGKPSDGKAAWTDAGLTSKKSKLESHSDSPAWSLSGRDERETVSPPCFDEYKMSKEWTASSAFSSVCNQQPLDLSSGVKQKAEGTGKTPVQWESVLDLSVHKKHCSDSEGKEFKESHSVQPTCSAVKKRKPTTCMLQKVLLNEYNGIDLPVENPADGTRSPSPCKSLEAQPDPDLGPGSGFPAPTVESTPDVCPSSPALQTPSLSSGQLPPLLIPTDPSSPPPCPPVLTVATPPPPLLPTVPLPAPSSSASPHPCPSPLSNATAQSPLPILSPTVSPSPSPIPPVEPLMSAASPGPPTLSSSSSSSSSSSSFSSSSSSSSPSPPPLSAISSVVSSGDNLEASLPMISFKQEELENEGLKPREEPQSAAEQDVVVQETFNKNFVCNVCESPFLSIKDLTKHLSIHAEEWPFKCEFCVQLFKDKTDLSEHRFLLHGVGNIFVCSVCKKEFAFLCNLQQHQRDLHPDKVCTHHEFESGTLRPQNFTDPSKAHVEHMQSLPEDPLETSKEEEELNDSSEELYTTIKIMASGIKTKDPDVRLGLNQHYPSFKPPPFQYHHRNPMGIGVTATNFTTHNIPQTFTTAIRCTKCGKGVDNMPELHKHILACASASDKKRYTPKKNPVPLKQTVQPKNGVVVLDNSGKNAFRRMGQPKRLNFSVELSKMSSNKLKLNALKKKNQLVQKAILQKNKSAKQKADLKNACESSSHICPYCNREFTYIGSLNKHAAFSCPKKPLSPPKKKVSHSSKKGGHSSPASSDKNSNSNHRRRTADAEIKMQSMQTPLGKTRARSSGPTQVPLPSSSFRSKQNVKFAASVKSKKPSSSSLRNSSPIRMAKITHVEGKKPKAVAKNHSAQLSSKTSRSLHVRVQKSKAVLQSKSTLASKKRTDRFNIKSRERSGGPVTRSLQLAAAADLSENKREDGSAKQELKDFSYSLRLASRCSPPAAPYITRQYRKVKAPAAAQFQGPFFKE
# Compound: Cc1cc(ccc1-c1ccccc1)C(=O)N1CCCN(CC1)C(=O)CCl [compound 10]
# Test: probe-labelled cysteine peptide fold change vs DMSO (competition) (log2 fold change); higher = less target engagement (more negative = stronger competition)
# Conditions: THP-1, incubation time: 4 h
# 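Also: competitive profiling in live THP-1 cells: cysteine peptides tagged with an iodoacetamide desthiobiotin (IA-DTB) probe, intensity after compound treatment relative to DMSO-treated cells.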
Target,probe-labelled cysteine peptide fold change (10 µM),probe-labelled cysteine peptide fold change (50 µM)
PPT1_P50897_160_CPGESSHICDFIR (UniProt P50897),-0.276,-0.185
PPP5C_P53041_208_KCAYQILVQVK (UniProt P53041),0.289,-0.402
PRDM2_Q13029_875_ESHSVQPTCSAVK (UniProt Q13029),-0.0669,-0.176

# From the supplement of paper PMC12067093, “Discovery and optimisation of a covalent ligand for TRIM25 and its application to targeted protein ubiquitination” (Chemical Science, 2025)
